According to PMC9196629, “Synthesis, Characterization and Antitumor Mechanism Investigation of Heterometallic Ru(Ⅱ)-Re(Ⅰ) Complexes” (Frontiers in Chemistry, 2022):

System: HeLa cells
Experiment: Cellular uptake by confocal microscopy
Type: cell-based, human
Conditions: 10 μM, increasing incubation time

SMILES | intracellular uptake (confocal microscopy)
F[P-](F)(F)(F)(F)F.F[P-](F)(F)(F)(F)F.F[P-](F)(F)(F)(F)F.[C-]#[O+].[C-]#[O+].[C-]#[O+].[Re+].[Ru+2].c1ccc(-c2ccccn2)nc1.c1ccc(-c2ccccn2)nc1.c1ccc(-c2ccnc3c2ccc2c(-c4ccccc4)ccnc23)cc1.c1cnc2c(c1)c1nc(-c3ccncc3)[nH]c1c1cccnc12 [RuRe-1, [Ru(bpy)2LRe(CO)3(DIP)](PF6)3] | effectively penetrate into HeLa cells
F[P-](F)(F)(F)(F)F.F[P-](F)(F)(F)(F)F.F[P-](F)(F)(F)(F)F.[C-]#[O+].[C-]#[O+].[C-]#[O+].[Re+].[Ru+2].c1ccc(-c2ccnc3c2ccc2c(-c4ccccc4)ccnc23)cc1.c1cnc2c(c1)c1nc(-c3ccncc3)[nH]c1c1cccnc12.c1cnc2c(c1)ccc1cccnc12.c1cnc2c(c1)ccc1cccnc12 [RuRe-2, [Ru(phen)2LRe(CO)3(DIP)](PF6)3] | effectively penetrate into HeLa cells
